Results taken from paper PMC10140023.

Sequences of proteins named here, by UniProt entry; tags and fusion partners are left off.
UniProt P28340: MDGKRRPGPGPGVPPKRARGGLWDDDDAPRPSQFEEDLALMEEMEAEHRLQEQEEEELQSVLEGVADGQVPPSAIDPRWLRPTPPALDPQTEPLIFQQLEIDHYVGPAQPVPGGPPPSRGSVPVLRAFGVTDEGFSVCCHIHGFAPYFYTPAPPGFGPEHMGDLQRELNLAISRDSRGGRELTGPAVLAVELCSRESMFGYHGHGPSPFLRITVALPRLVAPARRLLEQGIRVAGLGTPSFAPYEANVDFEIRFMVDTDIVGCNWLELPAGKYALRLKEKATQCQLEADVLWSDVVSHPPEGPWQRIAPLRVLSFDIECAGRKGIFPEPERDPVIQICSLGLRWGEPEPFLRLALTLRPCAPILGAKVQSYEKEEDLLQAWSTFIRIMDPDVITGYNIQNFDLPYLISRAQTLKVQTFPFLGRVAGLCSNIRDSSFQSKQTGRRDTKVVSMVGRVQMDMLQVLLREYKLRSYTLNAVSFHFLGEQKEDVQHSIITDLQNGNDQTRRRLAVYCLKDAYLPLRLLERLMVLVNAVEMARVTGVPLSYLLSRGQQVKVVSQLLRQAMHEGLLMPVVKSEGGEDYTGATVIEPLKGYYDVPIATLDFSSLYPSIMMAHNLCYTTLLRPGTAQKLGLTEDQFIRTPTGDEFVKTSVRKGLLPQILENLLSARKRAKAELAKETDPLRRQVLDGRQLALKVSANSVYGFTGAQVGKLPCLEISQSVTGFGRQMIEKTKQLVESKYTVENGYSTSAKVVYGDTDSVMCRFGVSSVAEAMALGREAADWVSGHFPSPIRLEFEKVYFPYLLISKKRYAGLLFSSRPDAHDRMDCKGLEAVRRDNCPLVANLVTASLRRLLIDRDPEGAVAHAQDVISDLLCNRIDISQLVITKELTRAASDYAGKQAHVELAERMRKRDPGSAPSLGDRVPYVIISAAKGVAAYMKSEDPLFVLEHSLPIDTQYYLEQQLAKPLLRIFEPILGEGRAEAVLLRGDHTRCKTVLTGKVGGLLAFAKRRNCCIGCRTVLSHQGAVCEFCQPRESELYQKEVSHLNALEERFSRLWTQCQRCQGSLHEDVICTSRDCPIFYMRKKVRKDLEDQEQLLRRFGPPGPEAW
UniProt Q969H0: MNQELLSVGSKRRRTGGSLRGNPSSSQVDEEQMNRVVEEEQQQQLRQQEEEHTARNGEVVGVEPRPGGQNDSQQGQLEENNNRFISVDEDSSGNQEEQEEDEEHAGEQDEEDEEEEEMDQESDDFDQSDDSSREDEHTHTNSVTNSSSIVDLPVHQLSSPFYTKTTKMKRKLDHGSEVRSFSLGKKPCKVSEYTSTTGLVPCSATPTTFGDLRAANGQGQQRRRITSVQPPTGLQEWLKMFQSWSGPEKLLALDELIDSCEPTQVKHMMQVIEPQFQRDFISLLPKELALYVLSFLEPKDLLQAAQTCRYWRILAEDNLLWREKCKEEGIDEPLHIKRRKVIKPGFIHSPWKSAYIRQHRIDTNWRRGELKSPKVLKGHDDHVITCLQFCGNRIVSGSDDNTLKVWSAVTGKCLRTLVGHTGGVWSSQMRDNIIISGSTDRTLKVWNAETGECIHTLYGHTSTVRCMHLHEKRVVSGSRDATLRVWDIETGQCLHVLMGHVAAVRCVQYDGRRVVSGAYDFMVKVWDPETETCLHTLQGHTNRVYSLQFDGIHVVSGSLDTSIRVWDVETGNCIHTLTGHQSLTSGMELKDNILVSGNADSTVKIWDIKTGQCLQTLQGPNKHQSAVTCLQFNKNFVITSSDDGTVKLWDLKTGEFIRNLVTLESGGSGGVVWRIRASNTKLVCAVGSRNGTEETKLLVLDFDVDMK

Biological target: Flag-POLD1 (human) (UniProt P28340)
Test: affinity purification with mass spectrometry; Flag-Vector or Flag-POLD1 transfected into 293T cells for 24 h, immunoprecipitation, LC-MS (Orbitrap Exploris 480), MaxQuant

FBXW7 (hit of the IP-MS) (from UniProt Q969H0 1-707)
binding: binds

No constants are given. Whether binding was seen depends on the method and setting. Binding seen in cells or lysates may run through a third protein. Here binding means that the protein was enriched with, or labelled near, the bait; the list need not be complete.
